From publication PMC9953847

Test system: cytochrome c
Experiment: QCM-D
Conditions: BSA blocked, PBS (10 mM) with 2 mM CaCl2, pH 7.4, flow 50 uL/min for lipid film assays, assay temperature not stated, single-stranded DNA

Sequence	binding result (cyt c (0.5-10 uM) covalently bound to MUA, bare AuNWs gave no change, 5'-NH2 coupled by EDC/NHS to MUA on gold nanowires, label: gold nanowire)	binding result (1 uM aptamer, cyt c (2 uM) covalently bound to MUA, frequency decrease, smaller than with AuNWs, 5'-NH2)
TTTTTTTTTTATCGATAAGCTTCCAGAGCCGTGTCTGGGGCCGACCGGCGCATTGGGTACGTTGTTGCCGTAGAATTCCTGCAGCC [NH2-Apt-cytc on AuNWs]	binds	
TTTTTTTTTTATCGATAAGCTTCCAGAGCCGTGTCTGGGGCCGACCGGCGCATTGGGTACGTTGTTGCCGTAGAATTCCTGCAGCC [NH2-Apt-cytc]		binds

For at least one entry, the source does not settle the construct or the ends of the probe.
